# Literature values, collected in patent publication US20210189389A1, “METHODS OF MODULATING ANK1” (SOCIETE DES PRODUITS NESTLE S.A., priority 2017, published 2021).
# For at least one compound, name, drawing or mass did not settle the structure.
# System: ANK1
# Conditions: effect on ANK1 expression, from Comparative Toxicogenomics Database and cited reference
row,SMILES,Interaction Actions
1,CN(C)[C@@H]1C(O)=C(C(N)=O)C(=O)[C@@]2(O)C(O)=C3C(=O)c4c(O)cccc4[C@@](C)(O)[C@H]3C[C@@H]12 [Tetracycline],affects expression
2,C[C@@H]1C[C@H]2[C@@H]3CCC4=CC(=O)C=C[C@]4(C)[C@@]3(F)[C@@H](O)C[C@]2(C)[C@@]1(O)C(=O)CO [Dexamethasone],decreases expression
3,C#C[C@]1(O)CC[C@H]2[C@@H]3CCc4cc(O)ccc4[C@H]3CC[C@@]21C [Ethinyl Estradiol],decreases expression
